Test results published in PubChem BioAssay AID651640 (Broad Institute, 2012).
The campaign covered roughly 350,000 compounds. About 6,000 (1.7%) were called active. Inconclusive results, whose numbers are uncertain, are shown with a selection of clear calls. Cut-off read from the data, not from the text of the source: active = CPE inhibition above about 20% (passing the limit was not always enough); inconclusive = no clear call, values can overlap the other calls; tested in BHK-21 cells.

Experiment: protection of cells from dengue 2 killing – plate reader, single concentration, primary screen (AID 651640);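 note: 0% = median of neutral control wells and 100% = median of positive control wells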
Settings: DENV2-infected cells, cytopathic effect rescue, at 9.99 µM, stronger effect = higher value

Row | Structure (SMILES) | CPE inhibition
1 | Cc1ccc(NNC(=O)c2c(C)noc2C)cc1Cl | inconclusive: 23.3%
2 | COc1cccc(/C=N/NC(=O)CN(CCc2ccccc2)S(=O)(=O)c2ccc(NC(C)=O)cc2)c1 | inconclusive: 57.3%
3 | COc1cccc(-c2ccc3c(c2)O[C@H](CN(C)Cc2cncnc2)[C@H](C)CN([C@@H](C)CO)S3(=O)=O)c1 | active: 28.5%
4 | CS(=O)(=O)N[C@@H]1C[C@@H]2O[C@@H](CO)CC[C@@H]2O[C@@H]1CCc1ccc(-c2ccccc2F)cc1 | active: 21.4%
5 | COC(=O)c1ccc(C2C(C(=O)c3ccco3)=C(O)C(=O)N2CC2CCCO2)cc1 (stereo unspecified) | inconclusive: 32.2%
6 | CC(C)C[C@H]1COc2cc(N3CC[C@H](O)C3)ccc2S(=O)(=O)N1 | inconclusive: 42.5%
7 | COc1ccccc1S(=O)(=O)N[C@@H]1CC[C@H](CCNC(=O)C2CC2)O[C@H]1CO | inactive: -1.4%
8 | COc1ccc2c3c(n(C)c2c1)[C@H](CO)N(CC1CC1)CC31CCN(Cc2nccs2)CC1 | active: 45.2%
9 | COc1cc(/C=C/C(=O)OCC(=O)Nc2nnc(-c3ccccc3)o2)cc(OC)c1OC | inconclusive: 40.1%
10 | CC(=O)N1CC[C@@H]2[C@H](CO)Nc3ccc(-c4ccccc4)cc3[C@@H]21 | inconclusive: 51.9%
11 | COc1ccc(-c2nc(-c3cccs3)no2)cc1 | inactive: 8.03%
12 | COc1cc(C(=O)N2CCN(c3cc(Cl)ccc3Cl)CC2)cc(OC)c1OC | inconclusive: 37.6%
13 | COc1cccc(NC(=O)CN(C)C(=O)Cc2ccc3c(c2)OCCO3)c1 | active: 41.7%
14 | C[C@H]1CN([C@@H](C)CO)C(=O)c2cc(C#CCN(C)C)cnc2O[C@@H]1CN(C)Cc1ccc(C(=O)O)cc1 | inconclusive: 32.9%
15 | O=C1NC[C@@H](CCCCN2C[C@H](Cc3ccccc3)N(CCC3CCCCC3)C(=O)C2=O)N(CCc2ccccc2)C1=O | inconclusive: 43%
16 | Cc1ccc(C)c2sc(NC(=O)C3CC3)nc12 | inactive: -6.6%
17 | Cc1nn(CC#N)c(=O)n1-c1ccc(C(C)C)cc1 | inconclusive: 32.2%
18 | C=CCn1c(CCSCc2ccccc2)n[nH]c1=S | inactive: 2.29%
19 | CC(NC(=O)COC(=O)COc1ccc(C(=O)c2ccccc2)cc1)c1ccccc1 (stereo unspecified) | inconclusive: 25%
20 | CC(C)NC(=O)N(C)C[C@@H]1Oc2ccc(NC(=O)CCCCCC(=O)Nc3ccccc3N)cc2CC(=O)N([C@H](C)CO)C[C@H]1C | inconclusive: 37.9%
21 | O=C(NC1CCN(Cc2ccccc2)CC1)c1ccccc1NS(=O)(=O)c1ccc(F)cc1 | inconclusive: 47.2%
22 | CN1C(=O)c2cc(NC(=O)Cc3cccs3)ccc2OC[C@H]2O[C@H](CC(=O)NCC3CCCCC3)CC[C@H]21 | inconclusive: 88.5%
23 | C[C@@H]1CN([C@@H](C)CO)C(=O)c2cc(NC(=O)CCC(F)(F)F)ccc2O[C@@H]1CN(C)C(=O)Nc1ccccc1 | active: 25.8%
24 | COc1ccc(/C=N/NC(=O)c2cccc3ccccc23)c(OC)c1OC | inconclusive: 22.8%

Part of the list above in order of formula weight, low to high.
Row | Structure (SMILES) | CPE inhibition
1 | Cc1ccc(NNC(=O)c2c(C)noc2C)cc1Cl | inconclusive: 23.3%
19 | CC(NC(=O)COC(=O)COc1ccc(C(=O)c2ccccc2)cc1)c1ccccc1 (stereo unspecified) | inconclusive: 25%
14 | C[C@H]1CN([C@@H](C)CO)C(=O)c2cc(C#CCN(C)C)cnc2O[C@@H]1CN(C)Cc1ccc(C(=O)O)cc1 | inconclusive: 32.9%

Entries shown so far with a thiophene ring, fused or not:
Row | Structure (SMILES) | CPE inhibition
11 | COc1ccc(-c2nc(-c3cccs3)no2)cc1 | inactive: 8.03%
22 | CN1C(=O)c2cc(NC(=O)Cc3cccs3)ccc2OC[C@H]2O[C@H](CC(=O)NCC3CCCCC3)CC[C@H]21 | inconclusive: 88.5%

(listing goes on)

Row | Structure (SMILES) | CPE inhibition
25 | O=C(C[C@H]1CC[C@H]2[C@@H](COC[C@@H](O)CN2C(=O)Nc2ccc(Cl)cc2)O1)N1CCCCC1 | inactive: 2.32%
26 | Cc1nnc(SCC(=O)Nc2ccccc2F)n1Cc1ccco1 | active: 64.4%
27 | Cn1c(N)c(C(=O)COC(=O)COc2ccccc2C#N)c(=O)n(C)c1=O | inconclusive: 39.1%
28 | CCN(CC)C(=O)c1csc([C@@H]2O[C@H](CO)[C@H](O)[C@H](O)[C@H]2O)n1 | inconclusive: 31.5%
29 | CN(C)CC#Cc1ccc([C@H]2[C@H](CO)N3CCCCN(C(=O)Nc4cc(F)ccc4F)C[C@@H]23)cc1 | active: 31.6%
30 | C[C@H](CO)N1C[C@H](C)[C@@H](CN(C)C(=O)CCCN(C)C)OCCCC[C@H](C)Oc2ccc(NS(=O)(=O)c3ccc(F)cc3)cc2C1=O | inactive: 8.94%
31 | C[C@H]1CN([C@@H](C)CO)C(=O)c2cc(-c3cccc(C(=O)N(C)C)c3)cnc2O[C@H]1CN(C)C(=O)Cc1ccccn1 | inconclusive: 24.2%
32 | CCCN1C[C@H](C)[C@@H](OC)CN(C)C(=O)c2cc(NC(=O)Nc3ccccc3F)ccc2OC[C@H]1C | active: 28.8%
33 | O=C(c1cccnc1)N1CCCCN2[C@H](CO)[C@@H](c3ccc(C#Cc4ccccn4)cc3)[C@H]2C1 | active: 20.3%
34 | Cc1noc(C)c1S(=O)(=O)Nc1ccc2c(c1)C(=O)N([C@@H](C)CO)C[C@@H](C)[C@H](CN(C)S(=O)(=O)c1ccccc1)OCCCC[C@@H](C)O2 | active: 93.8%
35 | Cc1nc(C)c(CC(=O)N/N=C/c2ccc(O)cc2)c(=O)[nH]1 | active: 31.3%
36 | O=S(=O)(N[C@H]1CC[C@@H](CCn2cc(C3(O)CCCC3)nn2)O[C@H]1CO)c1ccccc1 | inconclusive: 55.4%
37 | CS(=O)(=O)c1cccc(C(=O)OCC(=O)NC(=O)Nc2ccccc2F)c1 | inconclusive: 23.5%
38 | COc1ccc(NC(=O)N(C)C[C@@H]2OCCCC[C@@H](C)Oc3ccc(NC(=O)CCCCCC(=O)Nc4ccccc4N)cc3C(=O)N([C@H](C)CO)C[C@@H]2C)cc1 | inconclusive: 65.7%
39 | CC(=O)N[C@H]1C[C@@H]2O[C@H](CO)CC[C@@H]2O[C@@H]1CCc1ccc(C#CC2(O)CCCC2)cc1 | inconclusive: 65.5%
40 | COc1ccc(S(=O)(=O)N(C)C[C@@H]2OCCCC[C@H](C)Oc3ccc(NS(=O)(=O)c4ccc(C)cc4)cc3C(=O)N([C@@H](C)CO)C[C@@H]2C)cc1 | inactive: 14.6%
41 | CC(C(=O)N1CCN=C1c1ccccc1)N1C(=O)c2ccccc2C1=O (stereo unspecified) | inconclusive: 20%
42 | N#C/C(=C\c1ccc[nH]1)C(=O)Nc1ccccc1[N+](=O)[O-] | inconclusive: 49.9%
43 | CCC(N=c1cc(-c2ccc(OC)c(OC)c2)oc2ccc(C)cc12)C(=O)O (stereo unspecified) | active: 21.6%
44 | Cc1ccc(C)c(N2CCN(c3ccc([N+](=O)[O-])cn3)CC2)c1 | inconclusive: 20.7%
45 | CNc1ncnc2c1ncn2[C@H]1CN(Cc2ccc(F)cc2)C[C@@H](CO)O1 | inconclusive: 22.2%
46 | CN(C(=O)C1CCCC1)C1CCS(=O)(=O)C1 (stereo unspecified) | inconclusive: 27.1%
47 | Cc1ccc(CN2CCC[C@]3(N[C@H](c4ccc(C)cc4)[C@@H]4C(=O)N(C)C(=O)[C@@H]43)C2=O)cc1 | inconclusive: 31.9%
48 | O=C(CNc1cccc(F)c1)N1CCc2ccccc2C1 | inactive: 5.38%

Row | Structure (SMILES) | CPE inhibition
49 | COCCCN1C(=O)C(CC(=O)NC2CCCCC2)CC(C(=O)N(C(C)C)C(C)C)=C1C (stereo unspecified) | active: 26.6%
50 | Cc1cc(C)n2nc(C(F)(F)F)c(-c3ccccc3)c2n1 | inconclusive: 28.1%
51 | O=C(c1ccc(NC2=NC3CS(=O)(=O)CC3S2)cc1)N1CCN(c2ccc([N+](=O)[O-])cc2)CC1 (stereo unspecified) | active: 38.6%
52 | Cc1cc(Cl)ccc1OCCCC(=O)OCC(=O)Nc1cccc(S(N)(=O)=O)c1 | inconclusive: 30.4%
53 | C[C@@H]1CN([C@@H](C)CO)S(=O)(=O)c2ccc(-c3cccc(C#N)c3)cc2O[C@@H]1CN(C)C(=O)C1CC1 | inconclusive: 21%
54 | COCC(=O)N1CC2(CN(Cc3ccccc3)C2)c2c([nH]c3cc(OC)ccc23)[C@H]1CO | inconclusive: 36.2%
55 | O=C(Nc1ccccc1F)N1CC(=O)N2[C@H](CO)[C@@H](c3ccc(C#Cc4ccc(F)cc4)cc3)[C@@H]2C1 | active: 22%
56 | C[C@@H]1CCCCO[C@H](CN(C)Cc2ccncc2)[C@@H](C)CN([C@@H](C)CO)C(=O)c2cc(NC(=O)Nc3ccccc3)ccc2O1 | inconclusive: 41.7%
57 | Cc1noc(C)c1S(=O)(=O)N(C)C[C@@H]1OCCCC[C@@H](C)Oc2ccc(NC(=O)NC3CCCCC3)cc2C(=O)N([C@H](C)CO)C[C@H]1C | inconclusive: 64.2%
58 | CC(Sc1nc2ncc(Cl)cc2[nH]1)C(=O)Nc1ccc(C(N)=O)cc1 (stereo unspecified) | active: 118%
59 | COc1ccc2c3c([nH]c2c1)[C@H](CO)N(C(=O)c1ccc(F)cc1)CC31CN(C(=O)Nc2ccc(F)cc2)C1 | inconclusive: 36.9%
60 | Cc1c(C(=O)NCCN(C)C)n(C)c(=O)c2ccccc12 | inconclusive: 24.3%
61 | C[C@@H]1CN([C@@H](C)CO)C(=O)c2cccc(NC(=O)C3CC3)c2O[C@H]1CN(C)Cc1ccc(Cl)c(Cl)c1 | inactive: 13%
62 | O=C(Nc1ccc(Cl)cc1Cl)NC1CCN(S(=O)(=O)c2ccc(F)cc2)CC1 | inconclusive: 27.6%
63 | C[C@H](CO)N1C[C@H](C)[C@H](CN(C)Cc2ccc(C(F)(F)F)cc2)Oc2ccc(NC(=O)CCCCCC(=O)Nc3ccccc3N)cc2CC1=O | active: 30.6%
64 | CCOC(=O)C1(Cc2ccccc2C)CCCN(C(=O)c2cc(C3CC3)[nH]n2)C1 (stereo unspecified) | active: 25.8%
65 | COc1ccc(-n2c(CN3CCN(C)CC3)nc3ccc([N+](=O)[O-])cc3c2=O)c(OC)c1 | inconclusive: 41.2%
66 | Cc1ccc(N2C(=O)CC(Cc3ccc(Cl)cc3)C2=O)cc1 (stereo unspecified) | inconclusive: 22.1%
67 | CCC(=O)N1[C@H](CO)[C@@H](c2ccc(C3=CCCCC3)cc2)[C@@H]1CN(C)C(C)=O | inconclusive: 8.74%
68 | C[C@@H]1CN([C@H](C)CO)C(=O)c2cc(NS(=O)(=O)c3cn(C)cn3)ccc2O[C@H]1CN(C)Cc1ccccc1 | active: 20.8%
69 | CN1NC(=O)CC1c1ccccc1 (stereo unspecified) | inconclusive: 21.6%
70 | CNC(=O)C[C@H]1CC[C@@H]2[C@H](COc3ccc(NC(=O)c4ccc(F)cc4)cc3C(=O)N2C)O1 | inconclusive: 26.8%
71 | COc1ccc(S(=O)(=O)N(C)C[C@@H]2Oc3c(NC(=O)CCCCCC(=O)Nc4ccccc4N)cccc3C(=O)N([C@H](C)CO)C[C@@H]2C)cc1 | active: 35.5%
